# Screen size: about 53,000 sequences; about 3,700 (7%) were called active.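 The calls were made as follows: active = gene knockdowns whose robust z-score for IL-1 alpha signal is at least 2 or at most -2, so actives lie on both sides; inactive = the rest.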 Some of the results follow.
# Experiment: Components of the Cytosolic LPS Sensing Pathway: Gene Identification via Genome-wide siRNA Screen;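 also: robust z of the log signal after scaling to non-targeting control siRNA wells of the plate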
# Conditions: RAW264.7 macrophages, IL-1a HTRF, actives lie on both sides, screened at 100 nM (by protocol), cells primed 5 h with Pam3CSK4 first
# In short: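 Read-out: IL-1a HTRF on supernatant, divided by plate negative-control median ×100, log-transformed and converted to robust z-score. Cells were RAW264.7 given 100 nM siRNA, Pam3CSK4-primed 5 hours, then LipidA-transfected 24 hour.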
row,Sequence,z-score
1,GGGAAGCUACUCUUUGUCUTT against Hexb,inactive: 0.311
2,GCAUAUUAGACACAAGAUATT against Clec4a2,inactive: 0.465
3,UAUCACAGACAUGAAAGAATT against Lst1,inactive: 0.105
4,GGCUCAAACGAACAUAUCGTT against Cenpo,inactive: -1.29
5,CCACAUUGGUACUAGUCAATT against Fam120b,inactive: -0.63
6,GGUCAGGAUGAAGAAAACATT against Nedd4l,inactive: -0.4
7,GGCAGAAUAUACUUGCCCUTT against Uevld,inactive: -0.156
8,GGUUUUGGUGUUCUAUACCTT against Fam160b1,inactive: 0.489
9,GGGAGAUGGGUUUGUGUAATT against Izumo4,inactive: -0.0288
10,GGAAACAACCCAAAGAAUCTT against Slc12a8,inactive: -0.343
11,GCCUGUUCUCAAGACUGACTT against Sema4a,active: 2.06
12,GCAGGCUAUGUUCUGGAAUTT against Zfp212,active: 2.34
13,GGGUGGAGAAAAAAUGUACTT against Trappc13,inactive: -0.756
14,GCCUACGCUCUAUCUAGCUTT against Washc3,inactive: -0.363
15,CGUUGUAUAACAAACCAAUTT against Muc6,inactive: -0.947
16,GGUGAAAGUCAACUUUGACTT against Scn5a,inactive: -1.2
17,GCCAAUACAGACCACCUGGTT against Rln3,inactive: -1.67
18,GGUGCUAUACGAAUACUUGTT against Stxbp5l,inactive: -0.0835
19,CCAUGUGCGAUGUCACCAUTT against Zbtb39,inactive: -1.46
20,GGCCCUUCAAGUGUGAUCUTT against Zfp319,inactive: -0.135
21,GGGAUAAGCUUUACGAGCGTT against Purb,inactive: -0.775
22,GGCACCAUCUCCAUAAAAATT against Foxa3,inactive: -0.858

# An excerpt of these results, as tab-separated lines:
row	Sequence	z-score
6	GGUCAGGAUGAAGAAAACATT against Nedd4l	inactive: -0.4
7	GGCAGAAUAUACUUGCCCUTT against Uevld	inactive: -0.156
8	GGUUUUGGUGUUCUAUACCTT against Fam160b1	inactive: 0.489
9	GGGAGAUGGGUUUGUGUAATT against Izumo4	inactive: -0.0288
10	GGAAACAACCCAAAGAAUCTT against Slc12a8	inactive: -0.343

# Next part:

row,Sequence,z-score
1,CCUGUCAGGGAUGGAUUUUTT against Bhlhe40,inactive: -0.23
2,GGAAUUUAAAUUAUCCCUGTT against Krtap4-2,inactive: -0.127
3,GCUUACCCUCUCCUAAAUUTT against Wdr27,inactive: -1.21
4,GGCCAUGAAGAAGAUGUACTT against Stard10,inactive: -1.06
5,GGAGAGAAAGAAACCUAUUTT against Fmn2,inactive: 0.567
6,GGCAGAAGGGUAUAACUGUTT against Tbc1d24,inactive: 0.549
7,GGAAGUGUCUUUCAAGCCCTT against 1700029J07Rik,inactive: 1.88
8,GGCAGUCAACAAAGAAGACTT against Metap1d,inactive: -0.711
9,CCUUAUCCUGGGAAAAUCATT against Olfr266,inactive: 0.132
10,GCAGCAUGCCUAAAUUUGGTT against Fyb,inactive: -0.31
11,GGAAGAGGUAAAUGACAACTT against Slco6b1,inactive: 0.153
12,GCUAAAUACAGGAGAAAACTT against Rhox10,inactive: -0.149
13,GGCAACAUGAAGACUUUGUTT against Snx5,inactive: -1.04
14,GGGUGUCAUACUGUCCCAUTT against Olfr616,inactive: -0.324
15,GGUAAUUCUCCAAACCUCATT against Mfsd4a,inactive: -0.484
16,GCCGAUGAAGACCUUAGUCTT against Iqcd,inactive: -0.86
17,CCAGAUGUGUCGUAACAUATT against Clec4e,inactive: -1.38
18,CCCAGAGGUUCCCGUCAAUTT against Hmgb3,inactive: -0.21
19,GGAACUCUGUUCUAUUCCUTT against Chek2,inactive: 0.578
20,GGAUAUCACCUACCUUCGATT against Dusp15,inactive: -0.775
21,GGCUCUACCACAAGAAGGUTT against Iscu,inactive: 0.0947
22,UGCUGGUAGACCUAGUAGCTT against Olfr1137,active: -2.1

row,Sequence,z-score
1,GGGUUACUUCAACUCAUGCTT against Dcaf5,inactive: -0.275
2,GGCAGUCUACUUUACACGGTT against Prdm1,inactive: 0.294
3,GCGGUUCCAAGAUUGUUGUTT against Armc8,inactive: 0.109
4,GGCAUGUUACAUUUAUCAUTT against Cdkal1,inactive: 0.226
5,GGGACAAGUGUUGUUUGACTT against Epb41l2,inactive: 1.31
6,GGUACAACAGACUAUGCAATT against Snai1,inactive: 0.886
7,GGAACACAGAGUUAACUUATT against Ifi35,inactive: 0.509
8,GGAAGUGUGGACGAAUAAATT against Prelid3a,inactive: 0.691
9,GCCUCAUGAAUGACCACACTT against Klk1b21,inactive: 1.53
10,GGAUGUGCCUCGGUUGGAUTT against Gulo,inactive: 0.663
11,GGUGAACUGGUCUACAACATT against Muc2,inactive: 0.34
12,GGAGCACAAAGACAUUUUUTT against Lrrn1,inactive: 0.781
13,CCUCCUGUUAAUCAAACUGTT against Prss58,inactive: -0.0258
14,GGCAAAGACACCCAAAAAUTT against Hcfc1,inactive: -1.25
15,GGAUUUACCAGAGGAAAAUTT against Otub2,inactive: 0.228
16,GGUCAGAGCUCUGGACAAATT against Hsd3b1,active: 4.24
17,GCAGAAAGGCUGCUUCGAUTT against Tnfaip8l3,inactive: -0.635
18,GGUCUACGAGUUUAUUGCUTT against Phc1,inactive: -0.536
19,GGACUACCACAGCCUCUUCTT against Pxn,inactive: 0.173
20,GGGAACUGAAAAAUUUAGATT against Lrrd1,inactive: -0.00741
21,GGAUUGUCCACAUGGAACUTT against Ccl27a,inactive: -0.112
22,GCAAUUGUCAUUAGUUUUGTT against Nxpe2,inactive: 1.79

row,Sequence,z-score
1,GGAACUGGACUUAUUCCACTT against Wnt5b,inactive: 0.652
2,GGCUGUUUUCCUGUGUAAGTT against Ppt1,inactive: -0.826
3,GGUAAAAAUGGAUUAGUCGTT against Cyp2j5,inactive: 0.159
4,GCUUAAGCAGUGAUAAUAATT against B230317F23Rik,inactive: -1.65
5,GGAAGUGGACACAGAAAAATT against Baiap2l2,inactive: -0.0309
6,GGUGUGCAUCACCUUUGACTT against Lgals1,inactive: -0.715
7,GCUGAUAAAUCUGAACUACTT against Dhrs7,inactive: 1.15
8,GCGAAUUACAUGAAAACAUTT against Rassf9,inactive: 0.527
9,GGUAUCAAGGUGAAGUUGATT against Septin1,inactive: 0.776
10,GCACAUCGGCCUUAAGUCATT against Supt4a,inactive: -0.833
11,GGUGUACAGAUCUGUCUGGTT against Dkk1,active: 2.33
12,CCAAGAACUACCGUGAGUATT against Uts2r,inactive: -0.511
13,GCCUACCCGAGGAAACUUUTT against Spatc1,inactive: -0.302
14,GGAAGUUUUGUUCCUGCAUTT against Nars2,inactive: -0.0244
15,GCCUAAGCCUACCAAACGATT against Ints3,inactive: 0.0965
16,GGUGGACUUUAGUCCUGUGTT against Bpifb6,inactive: -1.02
17,GCUUCAAAAGUCUCCAUUGTT against Slc38a8,inactive: -1.86
18,GGCCGUUGGAAACACGAUCTT against Exosc6,inactive: -0.0911
19,CCUUGAAAUUUGUUCAUACTT against Pgm2l1,inactive: -0.886
20,GGGAUUAGCACUUUUUCUUTT against 2700081O15Rik,inactive: -0.646
21,GGUAAACUGAGGCAACGACTT against Ddah2,inactive: -0.234
22,GCCUGAAAGGCCUCACAAATT against Eloa,inactive: -0.72

row,Sequence,z-score
1,GCUAAAAAUGGUUGUGUGATT against Six3os1,inactive: -1.62
2,GGACUUUACUACGUAGAUGTT against Psmb8,inactive: -1.85
3,GGGCAGUCAAAACGAAGAGTT against Obi1,inactive: -1.18
4,GGCCUUAGAGAAAAUCUUUTT against Brd3,inactive: 0.871
5,GGAAUGAGGAACCUUCUUCTT against Oprm1,inactive: 0.0699
6,GGAUACAGAGCAGGAGAAATT against Rhox2a,inactive: -0.822
7,CCAGCAAGAGUGUGUGUAATT against Fam222a,inactive: -1.24
8,GGUUGGAUCAAGUUUAAAUTT against Tmsb4x,inactive: -0.0202
9,GCCUUUCUCGCUACUUAGUTT against Cltc,active: 2.83
10,GGAGCAUUAUCAACCACUATT against Olfr908,inactive: -0.0594
11,GCGAGAAACAUCAAUGGAUTT against Psip1,inactive: -0.145
12,GGUGGACCUUUGAAAAAGCTT against Tor1aip2,inactive: -1.54
13,GCCCUUUCCUCAAAAAAAATT against 1700034E13Rik,inactive: -0.42
14,GGAAGAUGAACUUCGUACCTT against Slc4a2,inactive: -0.438
15,CCACGAAAGGUGGAGAGGUTT against Tmc2,inactive: 1.17
16,GGCUAGUUUUCUCUUAAAUTT against Usp1,active: -3.12
17,GCCGGAAUACUGGAUACCGTT against Vasn,inactive: 0.247
18,GCGUGAGAAGAGCAUUGAGTT against Rab11fip3,inactive: -0.115

# Reference: PubChem BioAssay AID1508600 (Functional Genomics Laboratory (NCATS/FGL), 2020)
